Experimental data from US5336483A (priority 1993, dated 1994).

Columns and labels:
κ2 receptor = experiment: Displacement of [^3 H]BRM (bremazocine), κ2 receptor binding, guinea pig brain membranes depleted of μ and δ sites; conditions: [^3 H]BRM displacement
Low Affinity δ Receptors = experiment: Displacement of [^3 H]DADLE, low affinity δ receptors, rat lysed-P2 membranes; type: binding
μ and κ2 receptor = experiment: Displacement of [^3 H]CycloFOXY, μ and κ2 receptor binding, rat brain lysed-P2 membranes; conditions: [^3 H]CycloFOXY displacement

Structure (SMILES): O=C1CC[C@@]2(O)[C@H]3Cc4ccc(O)c5c4[C@@]2(CCN3CC2CC2)[C@H]1O5 [Naltrexone, reference compound]
- N (slope factor) (κ2 receptor): 0.74 ± .02

Structure (SMILES): Oc1ccc2c3c1O[C@H]1[C@H](Br)CC[C@@]4(O)[C@@H](C2)N(CC2CC2)CC[C@]314 [CycloBROXY, reference compound]
- N (slope factor) (Low Affinity δ Receptors): 0.83 ± .02
- N (slope factor) (κ2 receptor): 0.55 ± .02
- N (slope factor) (μ and κ2 receptor): 1.04 ± 0.04

Structure (SMILES): Oc1ccc2c3c1O[C@H]1[C@H](I)CC[C@@]4(O)[C@@H](C2)N(CC2CC2)CC[C@]314 [IOXY, 6β-Iodo-3,14-Dihydroxy-17-Cyclopropylmethyl-4,5α-Epoxymorphinan]
- N (slope factor) (Low Affinity δ Receptors): 0.76 ± .05
- N (slope factor) (κ2 receptor): 0.74 ± .02
- N (slope factor) (μ and κ2 receptor): 0.99 ± 0.06

Structure (SMILES): Oc1ccc2c3c1O[C@H]1[C@@H](I)CC[C@@]4(O)[C@@H](C2)N(CC2CC2)CC[C@]314 [EpilOXY, 6α-Iodo-3,14-Dihydroxy-17-Cyclopropylmethyl-4,5α-Epoxymorphinan]
- N (slope factor) (Low Affinity δ Receptors): 0.94 ± .06
- N (slope factor) (κ2 receptor): 0.76 ± .03
- N (slope factor) (μ and κ2 receptor): 1.21 ± 0.06
